Results from US20260115250A1, “METHODS OF TREATING AGE-RELATED MACULAR DEGENERATION” (Character Biosciences, Inc., priority 2022, published 2026).
At least one peptide structure holds a part that was inferred or is arguable (an end, a ring closure or a residue). Some entries repeat one wording, which the source may state once for all of them. Some of these results come from one statement about several compounds together. Ends that are not written are not given here. Peptide text beside a SMILES is read from it.

Experiments:
ARPE-19 cells = test: ARPE-19 cholesterol import (BODIPY-Cholesterol); assay type: cell-based, human; conditions: for cholesterol import activity (fluorescence values above baseline): ARPE-19, 10 μM peptide, 2 hours; for cholesterol import titration: ARPE-19, peptide:lipid complexes from 30 μM diluted 1:3, FIG. 16
Method: FIG. 12 and FIGS. 14A-14B illustrate the results of ARPE-19 cholesterol import testing. ARPE-19 cells were seeded on 96-well plates at 25,000 cells per well and grown to confluence. A 2× solution of 500 μM DMPC and 50 μM BODIPY-Cholesterol were prepared in serum free DMEM: F12. Peptides were diluted to 20 μM in serum free DMEM: F12 (a 2× solution). Peptides were added to lipid solution in equal parts (60 μL each) and were incubated for 1 hour at 37° C. ARPE-19 cells were serum starved in serum free DMEM: F12 for 1 hour at 37° C. Peptide: Lipid complexes (100 μL total volume per well) were transferred to ARPE-19 cells for 2 hours at 37° C. Cells were washed, fixed, and intracellular fluorescence was read on Promega GloMax at 475 nm excitation, 500-550 emission. Fluorescence values were background corrected from no treatment conditions. Data are presented as mean+SD for two runs.
FIG. 15 illustrates ARPE-19 cholesterol import titration curves for a subset of the peptides. ARPE-19 cells were seeded on 96-well plates at 25,000 cells per well and grown to confluence. A 2× solution of 500 μM DMPC and 50 μM BODIPY-Cholesterol was prepared in serum free DMEM: F12. Peptides were diluted to 0.74-60 μM in serum free DMEM: F12 (2× solutions). Peptides were added to lipid solution in equal parts (60 μL each) to create final peptide concentrations of 0.37-30 µM and incubated for 1 hour at 37° C. ARPE-19 cells were serum starved in serum free DMEM: F12 for 1 hour at 37° C. Peptide: Lipid complexes (100 μL total volume per well) were transferred to ARPE-19 cells for 2 hours at 37° C. Cells were washed, fixed, and intracellular fluorescence was read on Promega GloMax at 475 nm excitation, 500-550 emission. Fluorescence values were background corrected from no treatment conditions. Data are presented as mean+SD for three runs.
ARPE-19 cells were seeded on 96-well plates at 25,000 cells per well and grown to confluence. Peptide: Lipid complexes were created by preparing a solution of serum-free DMEM:F12 containing 30 μM peptide, 750 μM DMPC, and 75 μM BODIPY-Cholesterol. Peptide: Lipid complexes were serially diluted 1:3 for 5 concentrations, and incubated for 1 hour at 37° C. ARPE-19 cells were serum starved in serum free DMEM: F12 for 1 hour at 37° C. Peptide: Lipid complexes (100 μL total volume per well) were transferred to ARPE-19 cells for 2 hours at 37° C. Cells were washed, fixed, and intracellular fluorescence was read on Promega GloMax at 475 nm excitation, 500-550 emission. Fluorescence values were background corrected from no treatment conditions. Data are presented as mean±SD for two runs.

HepG2 cells = test: HepG2 cholesterol import (BODIPY-Cholesterol); assay type: cell-based; conditions: for cholesterol import activity (cellular fluorescence values above baseline): HepG2, 10 μM peptide, 2 hours; for cholesterol import titration: HepG2, peptide:lipid complexes from 30 μM diluted 1:3
HMC3 cells = test: HMC3 cholesterol efflux; assay type: cell-based, human; conditions: for cholesterol efflux titration: HMC3, 0-100 μM peptide, LXR agonist
Method: (§1) FIGS. 27A-27B and FIG. 28 illustrate HMC3 cholesterol efflux. Fully confluent 96-well plates of HMC3 cells were treated for 1 hour in serum-free EMEM containing 10 mM methyl-β-cyclodextrin, 100 μM cholesterol, and 25 μM BODIPY cholesterol. Cells were then washed and incubated overnight in serum free EMEM containing 1 μM LXR agonist GW3965, 2 μg/mL ACAT inhibitor, and 0.2% BSA (LXR Agonist treated), or serum-free EMEM containing 2 μg/mL ACAT inhibitor, and 0.2% BSA (Control). Cells were washed and incubated with 20 μM peptides diluted in serum-free Fluorobrite DMEM for 4 hours at 37° C. Media was transferred to a new 96-well plate and fresh serum-free Fluorobrite DMEM was placed on the cells. Media and cellular fluorescence were read on a Promega GloMax at 475 nm excitation, 500-550 emission. Fluorescence values were background corrected from no treatment conditions and percent efflux was calculated by the following equation: % efflux=(Media Fluorescence values)/(Media+Cell Fluorescence values). Data are presented as mean+SD over two runs per peptide.
as §1, with “FIGS. 30A-30J show” for “FIGS. 27A-27B and FIG. 28 illustrate”, “cholesterol efflux titration curves for the indicated peptides.” for “cholesterol efflux.”, “μM” for “μM LXR agonist”, “or serum free” for “or serum-free”, “with 0-100” for “with 20”, “peptides serially” for “peptides”

Row | Molecule | cholesterol import activity (fluorescence values above baseline) (ARPE-19 cells) | cholesterol import activity (cellular fluorescence values above baseline) (HepG2 cells) | cholesterol efflux in the presence of LXR agonist (HMC3 cells; HMC3, 20 μM peptide, 4 hours) | cholesterol import titration (ARPE-19 cells) | cholesterol efflux titration (HMC3 cells) | cholesterol import titration (HepG2 cells)
1 | CSCC[C@H](NC(=O)[C@H](CC(C)C)NC(=O)[C@H](CC(=O)O)NC(=O)[C@H](CCCCN)NC(=O)CNC(=O)[C@H](Cc1ccc(O)cc1)NC(=O)[C@H](CC(=O)O)NC(=O)[C@@H](NC(=O)[C@@H](NC(=O)[C@@H](NC(=O)[C@H](CCC(N)=O)NC(=O)[C@H](Cc1ccccc1)NC(=O)[C@H](Cc1ccc(O)cc1)NC(=O)[C@H](CCC(N)=O)NC(=O)[C@H](CO)NC(=O)[C@@H](NC(=O)[C@H](CC(C)C)NC(=O)[C@H](CO)NC(=O)[C@H](CCCNC(=N)N)NC(=O)[C@H](CC(C)C)NC(=O)[C@H](CC(C)C)NC(=O)[C@H](CCCNC(=N)N)NC(=O)[C@H](CCCCN)NC(=O)[C@H](CCCNC(=N)N)NC(=O)[C@H](CC(C)C)NC(=O)[C@H](CCCCN)NC(=O)[C@H](CCCNC(=N)N)NC(=O)[C@H](CC(C)C)NC(=O)[C@@H](N)Cc1c[nH]cn1)C(C)C)[C@@H](C)O)C(C)C)[C@@H](C)O)C(=O)O [T-027] (H-HLRKLRKRLLRSLVSQYFQTVTDYGKDLM-OH; N-terminus and C-terminus assumed) | at least 10 RFU | ≥ 20 RFU | – | – | – | –
2 | CSCC[C@H](NC(=O)[C@H](CC(C)C)NC(=O)[C@H](CC(=O)O)NC(=O)[C@H](CCCCN)NC(=O)CNC(=O)[C@H](Cc1ccc(O)cc1)NC(=O)[C@H](CC(=O)O)NC(=O)[C@@H](NC(=O)[C@@H](NC(=O)[C@@H](NC(=O)[C@H](CCC(N)=O)NC(=O)[C@H](Cc1ccccc1)NC(=O)[C@H](Cc1ccc(O)cc1)NC(=O)[C@H](CCC(N)=O)NC(=O)[C@H](CO)NC(=O)[C@@H](NC(=O)[C@H](CC(C)C)NC(=O)[C@H](CO)NC(=O)[C@H](CCCNC(=N)N)NC(=O)[C@H](CC(C)C)NC(=O)[C@H](CC(C)C)NC(=O)[C@H](CCCNC(=N)N)NC(=O)[C@H](CCCCN)NC(=O)[C@H](CCCNC(=N)N)NC(=O)[C@H](CC(C)C)NC(=O)[C@H](CCCCN)NC(=O)[C@H](CCCNC(=N)N)NC(=O)[C@H](CC(C)C)NC(=O)[C@H](Cc1c[nH]cn1)NC(=O)[C@H](CO)NC(=O)[C@H](C)NC(=O)[C@@H](N)CC(C)C)C(C)C)[C@@H](C)O)C(C)C)[C@@H](C)O)C(=O)O [T-065] (H-LASHLRKLRKRLLRSLVSQYFQTVTDYGKDLM-OH) | at least 10 RFU | ≥ 20 RFU | – | – | – | –
3 | CSCC[C@H](NC(=O)[C@H](CC(C)C)NC(=O)[C@H](CC(=O)O)NC(=O)[C@H](CCCCN)NC(=O)CNC(=O)[C@H](Cc1ccc(O)cc1)NC(=O)[C@H](CC(=O)O)NC(=O)[C@@H](NC(=O)[C@@H](NC(=O)[C@@H](NC(=O)[C@H](CCC(N)=O)NC(=O)[C@H](Cc1ccccc1)NC(=O)[C@H](Cc1ccc(O)cc1)NC(=O)[C@H](CCC(N)=O)NC(=O)[C@H](CO)NC(=O)[C@@H](NC(=O)[C@H](CC(C)C)NC(=O)[C@H](CO)NC(=O)[C@H](CCCNC(=N)N)NC(=O)[C@H](C)NC(=O)[C@H](CC(C)C)NC(=O)[C@H](CCCNC(=N)N)NC(=O)[C@H](CCCCN)NC(=O)[C@H](CCCNC(=N)N)NC(=O)[C@H](CC(C)C)NC(=O)[C@H](CCCCN)NC(=O)[C@H](CCCNC(=N)N)NC(=O)[C@H](CC(C)C)NC(=O)[C@H](Cc1c[nH]cn1)NC(=O)[C@H](CCCNC(=N)N)NC(=O)[C@H](C)NC(=O)[C@@H](N)CC(C)C)C(C)C)[C@@H](C)O)C(C)C)[C@@H](C)O)C(=O)O [T-066] (H-LARHLRKLRKRLARSLVSQYFQTVTDYGKDLM-OH) | at least 10 RFU | ≥ 20 RFU | – | – | – | –
4 | CC(C)C[C@H](NC(=O)[C@H](C)NC(=O)[C@H](CCCNC(=N)N)NC(=O)[C@H](Cc1ccccc1)NC(=O)[C@H](CCC(=O)O)NC(=O)[C@H](CCCNC(=N)N)NC(=O)[C@@H](N)Cc1c[nH]c2ccccc12)C(=O)N[C@@H](Cc1ccccc1)C(=O)N[C@@H](CCCCN)C(=O)N[C@@H](CCC(=O)O)C(=O)N[C@@H](CC(C)C)C(=O)N[C@@H](C)C(=O)N[C@@H](CC(=O)O)C(=O)N[C@@H](Cc1ccc(O)cc1)C(=O)N[C@@H](Cc1ccccc1)C(=O)N[C@@H](CCCNC(=N)N)C(=O)N[C@@H](CC(=O)O)C(=O)N[C@@H](C)C(=O)O [T-085] (H-WREFRALFKELADYFRDA-OH) | – | – | greater cholesterol efflux | – | – | –
5 | DAWERFRALFKELADYFRLGQSTEELRVRLASHLRKLRKRLLRDADDLQKRLAVYQA [T-116] | at least 10 RFU | – | – | concentration-dependent increases in cholesterol import | concentration-dependent increase in cholesterol efflux | concentration-dependent cholesterol import activity
6 | LKDFGERVARALREQFEDLGQSTEELRVRLASHLRKLRKRLLRDADDLQKRLAVYQA [T-114] | at least 10 RFU | – | – | concentration-dependent increases in cholesterol import | concentration-dependent increase in cholesterol efflux | concentration-dependent cholesterol import activity
7 | MEDVRGRLVQYRGEVQAMLGQSTEELRVRLASHLRKLRKRLLRDADDLQKRLAVYQA [T-068] | at least 10 RFU | ≥ 20 RFU | – | – | – | –
8 | T-018: therapeutic peptide (HLRKLRKRLLRPPEQAQQIRLQAEAFQARLKSWFE) | at least 10 RFU | ≥ 20 RFU | – | – | – | –
9 | T-030: therapeutic peptide (EHLCELIERACRKLVELQEKLSKWLIAELGEGWRQWLHSLKEFLS) | at least 10 RFU | ≥ 20 RFU | – | – | – | –
10 | T-070: therapeutic peptide (LVQYRGEVQAMLGQSTEELRVRLASHLRKLRKRLLRDADDLQKRLAVYQA) | at least 10 RFU | ≥ 20 RFU | – | – | – | –
11 | YKDFGERVERALGRQLEMLGQSTEELRVRLASHLRKLRKRLLRDADDLQKRLAVYQA [T-112] | at least 10 RFU | – | – | concentration-dependent increases in cholesterol import | concentration-dependent increase in cholesterol efflux | concentration-dependent cholesterol import activity
